# Results taken from patent US4929602A, “Method of inhibiting platelet dependent arterial thrombosis” (Scripps Clinic and Research Foundation, priority 1988, dated 1990).
# Part of at least one peptide drawing is inferred or uncertain, most often the ends.
# System: platelets
# Experiment: Platelet aggregation in citrated PRP, EC50 of agonist (dialyzer study)
# Type: cell-based, baboon
# Details: animals receiving 100 nmol/kg per min PPACK
structure (smiles),measurement,value
"N=C(N)NCCC[C@H](NC(=O)[C@@H]1CCCN1C(=O)[C@H](N)Cc1ccccc1)C(=O)CCl [PPACK, D-phenylalanyl-L-propyl-L-arginyl-chloromethyl ketone]",platelet aggregation induced by ADP or collagen,essentially normal
